# The campaign covered roughly 340,000 compounds. About 170 (0.05%) were called active. Inconclusive means that the source gave no clear call. Such entries were picked first, then a sample of the others. Calls come from the whole dose curve; as a rule, active = well fitted inhibition curve with a large enough effect in the signal ratio, with a control signal flat (not every such curve was filed as active); inconclusive = small, poorly fitted or top-dose-only effect, or effect the other way, or a change in a side signal; inactive = flat fitted curve, though single readings scatter; the % refers to the signal ratio. Where the call is inconclusive, the potency comes from a doubtful curve fit.
# Test: qHTS Assay to Find Inhibitors of Chronic Active B-Cell Receptor Signaling;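 for activity change, negative = inhibition: plate controls were basal doxycycline-induced cells for no effect and cells given 10 µM MG132 for full effect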
# Conditions: ABC-DLBCL IkBa-CBG/CBR reporter, luminescence ratio (green luciferase fused to IkBa over red control in TMD8 lymphoma cells), 4 h; activity change, negative = inhibition: at 46.1 µM (top of the series)
# Outline: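 Cell line TMD8 (human ABC DLBCL), stably expressing tet-inducible CBG68-IkBa fusion and CBR; IMDM/0.5% FBS; cpd up to 46 uM; dox induction, 4 h, 37C/5% CO2; dual luminescence; green/red ratio; MG132 control.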
# Potency is the fitted concentration of half-maximal effect.
Structure (SMILES),"activity change, negative = inhibition",Potency
CCCC1=[N+](CC)CCn2c(C)ccc21,inactive: -0.858%,
O=c1c2ccccc2n2cnnc2n1-c1ccccc1,inconclusive: 0.0946%,
Cn1c(N)c(C(=O)COC(=O)C2(c3cccc(F)c3)CCCC2)c(=O)n(C)c1=O,inconclusive: 6.26%,
COc1nccnc1NS(=O)(=O)c1ccc(N=Cc2c(C)[nH]n(-c3ccc(C)c(C)c3)c2=O)cc1,inactive: 5.33%,
CC(C)CC(=O)Nc1ncnc2c1C(=O)CC(C)(C)C2,,"inconclusive: 2.91 µM [falling, partial curve, poor fit]"
COc1ccc(OCC(O)COc2ccc(C(=O)O)cc2)cc1 (stereo unspecified),inactive: 4.1%,
Cc1ccc(NC(=O)CSc2nnc(COc3ccccc3C)o2)cc1,inconclusive: -1.5%,
O=S(=O)(NC1CCCCC1)c1ccc(Cl)s1,inconclusive: 17.1%,
O=C(CCCN1C(=O)NC2(CCCC2)C1=O)Nc1cccc(S(=O)(=O)N2CCOCC2)c1,inactive: 1.29%,
CC(c1ccccc1)N1C(=O)c2ccccc2C1O (stereo unspecified),inconclusive: -5.98%,
CCn1c(C)nc2cc(C(=O)N/N=C(\C)c3ccc(N4CCOCC4)cc3)ccc21,inconclusive: 3.91%,
Brc1ccc(-c2ccc(CNCc3ccccn3)o2)cc1,inconclusive: 6.02%,
Nc1c(C(=O)N/N=C/c2ccc(Cl)cc2)cnn1-c1ccccc1,inactive: -6.68%,
CC(=O)NC(N(C#N)c1nc(Cl)nc(N(C)C)n1)C(Cl)(Cl)Cl (stereo unspecified),inconclusive: 8.44%,
COc1cccc(/C=N/NC(=O)c2nnn(-c3nonc3N)c2C(C)C)c1,,"inconclusive: 3.16 µM [rising, single point]"
Oc1ccc(CNc2ccccc2O)cc1,,"inconclusive: 1.64 µM [falling, partial curve]"
O=S(=O)(c1ccc(-c2cc(C(F)(F)F)on2)s1)N1CCCC1,inconclusive: -24.7%,
CC(C)CNc1ncnc2c1cnn2Cc1ccc(Cl)cc1,inconclusive: 17.7%,
CCc1nnc(NC(=O)CSc2nnc(C(C)NC(=O)c3ccccc3F)n2C)s1 (stereo unspecified),inconclusive: 1.14%,

Structure (SMILES),"activity change, negative = inhibition",Potency
CCCn1[nH]cc(SC)c(=O)c1=O,inactive: 1.11%,
O=C(N[C@@H]1CCC(=O)N(CC[C@H](Sc2ccccc2)c2ccccc2)CC1)OCc1ccccc1,inactive: 2.07%,
COc1ccc(CCn2c(=N)c(C(=O)NCC3CCCO3)cc3c(=O)n4ccccc4nc32)cc1OC (stereo unspecified),inconclusive: -0.956%,
Cc1cc(-c2ccccc2)n2nc(C)c(-c3ccccc3)c2n1,inconclusive: 8.51%,
COc1ccc2sc(-c3ccccc3OC)c(-c3ccc(OC)c(F)c3)c2c1,inconclusive: 19.7%,
Nc1nc(Nc2ccccc2Br)nc(C(F)(F)F)n1,inactive: -9.61%,
O=c1c2c3c(sc2n(CCN2CCCC2)c(=O)n1Cc1ccco1)CCCCC3,inactive: 1.64%,
O=C(NNc1c2ccccc2nc2ccccc12)c1ccc(O)cc1O,inconclusive: 0.198%,
COc1ccc(C(=O)CCC(=O)Nc2cccnc2)cc1OC,inactive: 1.47%,
CC1CC(C)CN(c2ccc(-n3cnnn3)cc2[N+](=O)[O-])C1 (stereo unspecified),inactive: 2.24%,
CN(CCOc1ccc(-c2ccn(S(=O)(=O)c3cccc4ccccc34)n2)cc1)c1ccccn1,inconclusive: 11.1%,
CN(C)c1ccc(/C=N/NC(=O)c2cc(-c3ccc4c(c3)OCO4)n[nH]2)cc1,inconclusive: 6.26%,
CCOC(=O)COc1ccc(/C=C2/SC(=Nc3ccccc3)N(Cc3cccnc3)C2=O)cc1OC,inconclusive: 5.77%,
CCCC(O)(CCC)C(=O)NN(C(=O)CCl)c1cccc(C)c1,,"inconclusive: 20.6 µM [falling, partial curve, poor fit]"
Cc1ccc(NC(=S)NCCSc2ccc(Cl)cc2)c(C)c1,inconclusive: -15.9%,
C=CCOc1cccc(NC(=O)c2ccccc2SC)c1,inconclusive: 4.96%,
CC(C)N1CCC2(CC1)N=C(c1ccc3c(c1)OCO3)CC(c1cc(Cl)ccc1O)N2 (stereo unspecified),inconclusive: -12.7%,
O=C(CSc1nc(=O)n(CCN2CCOCC2)c2c1CCCC2)Nc1cccc([N+](=O)[O-])c1,inconclusive: -0.192%,
CC(Oc1ccccc1)C(=O)N=C1SC2CS(=O)(=O)CC2N1c1ccc(F)cc1 (stereo unspecified),inactive: 7.06%,

# Structural class: those above containing a thiophene ring, fused or not
Structure (SMILES),"activity change, negative = inhibition",Potency
O=S(=O)(NC1CCCCC1)c1ccc(Cl)s1,inconclusive: 17.1%,
O=S(=O)(c1ccc(-c2cc(C(F)(F)F)on2)s1)N1CCCC1,inconclusive: -24.7%,
COc1ccc2sc(-c3ccccc3OC)c(-c3ccc(OC)c(F)c3)c2c1,inconclusive: 19.7%,
O=c1c2c3c(sc2n(CCN2CCCC2)c(=O)n1Cc1ccco1)CCCCC3,inactive: 1.64%,

# (further entries)

Structure (SMILES),"activity change, negative = inhibition",Potency
O=C(Nc1ccc(F)cc1)OCCN1CCN(Cc2ccccc2)CCC1=O,inactive: 3.96%,
Cc1ccsc1/C=C1\Oc2cc(OCC(=O)c3ccccc3)ccc2C1=O,inconclusive: 18.8%,
Cc1ccc(NS(=O)(=O)c2cc(C(=O)Nc3cccc(N(C)S(C)(=O)=O)c3)ccc2C)c(C)c1,inconclusive: -10.4%,
COc1ccc(/C(N)=N/OC(=O)CCc2ccccc2)cc1OC,inconclusive: 10.1%,
O=C(CN1CCN(Cc2ccccc2)CC1)Nc1cccc(Br)c1,inactive: -14.1%,
NS(=O)(=O)c1cccc(NC(=O)c2cncc(Br)c2)c1,inconclusive: 2.71%,
O=C(COC(=O)CNC(=O)C1CCCCC1)Nc1cc(C(F)(F)F)ccc1Cl,,"inconclusive: 25.9 µM [rising, partial curve, poor fit]"
Cc1cc(NC(=O)c2cccc(F)c2)ncc1NC(=O)c1ccco1,,"inconclusive: 0.231 µM [falling, full curve, poor fit]"
CCc1cc(=O)oc2cc(OCC(=O)OC)c(Cl)cc12,inconclusive: 8.68%,
Cc1csc(N/N=C/c2ccc(O)c([N+](=O)[O-])c2)n1,inconclusive: 25.8%,
Cc1cc2ccccn2c1C(=O)c1ccccc1Br,inconclusive: 6.19%,
CC(C)C(=O)c1cc2c(cc1NC(=O)c1ccccc1F)OCCO2,inactive: -1.16%,
COC(=O)c1cc(S(=O)(=O)N(C)Cc2ccco2)c[nH]1,inactive: -2.4%,
COn1c(=O)c(-c2ccc(F)cc2)[n+]([O-])c2ccccc21,inconclusive: 4.65%,
CCc1ccc(/C=C2\Oc3cc(OS(C)(=O)=O)ccc3C2=O)cc1,inactive: -6.22%,
COc1cccc(NC(=O)C2Cc3ccccc3CN2C(=O)c2ccco2)c1 (stereo unspecified),,"inconclusive: 15.8 µM [falling, partial curve, poor fit]"
Cc1ccc(C(=O)OCn2ncc(Cl)c(Cl)c2=O)cc1,inconclusive: 16.5%,
COc1ccc2c(c1)CCCN2S(=O)(=O)c1ccc(Cl)cc1,inactive: -1.5%,

# Source: PubChem BioAssay AID493014 (National Center for Advancing Translational Sciences (NCATS), 2011)
